# Data from the supplement of paper PMC6411743.
# ± gives the standard deviation of the averaged measurements. The list shows a part of the results, in another mix than the full data.
# Key:
# Experiment in all cases: NP40-soluble protein abundance relative to vehicle (solubility fold change) (ratio); higher = more soluble protein in presence of ATP
# [1] = target: T1, ACAD9 (UniProt Q9H845)
# T1 sequence (whole entry): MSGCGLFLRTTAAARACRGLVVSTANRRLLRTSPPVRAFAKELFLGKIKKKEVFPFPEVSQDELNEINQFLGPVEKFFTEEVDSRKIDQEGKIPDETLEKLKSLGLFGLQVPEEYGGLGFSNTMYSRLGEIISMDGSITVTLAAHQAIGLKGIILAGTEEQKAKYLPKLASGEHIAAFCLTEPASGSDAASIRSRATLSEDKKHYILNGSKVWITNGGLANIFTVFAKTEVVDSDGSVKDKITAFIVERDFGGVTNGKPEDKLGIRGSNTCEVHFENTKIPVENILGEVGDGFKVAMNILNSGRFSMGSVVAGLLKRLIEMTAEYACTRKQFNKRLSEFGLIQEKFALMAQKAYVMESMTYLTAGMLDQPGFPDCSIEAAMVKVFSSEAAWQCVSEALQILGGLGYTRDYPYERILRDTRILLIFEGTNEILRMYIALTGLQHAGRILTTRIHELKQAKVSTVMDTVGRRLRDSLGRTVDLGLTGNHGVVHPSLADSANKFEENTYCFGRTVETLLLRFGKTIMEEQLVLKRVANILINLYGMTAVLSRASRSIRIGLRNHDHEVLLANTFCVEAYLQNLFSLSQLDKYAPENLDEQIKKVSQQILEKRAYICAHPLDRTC
# Procedure, shortened: (§1)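 Jurkat crude lysate prepared with a Dounce homogeniser was treated at eight concentrations spanning 0.1 to 10 mM, 10 min at room temperature then 3 min at 37 °C. Solubilisation with 0.8% NP40 and benzonase and ultracentrifugation preceded TMT labelling of the supernatant for LC-MS/MS. Fold change against the detergent-processed vehicle was determined per replicate from vsn-normalised intensities, across three independent experiments.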
# [2] = target: T2, CSTF2T (UniProt Q9H0L4)
# T2 sequence (whole entry): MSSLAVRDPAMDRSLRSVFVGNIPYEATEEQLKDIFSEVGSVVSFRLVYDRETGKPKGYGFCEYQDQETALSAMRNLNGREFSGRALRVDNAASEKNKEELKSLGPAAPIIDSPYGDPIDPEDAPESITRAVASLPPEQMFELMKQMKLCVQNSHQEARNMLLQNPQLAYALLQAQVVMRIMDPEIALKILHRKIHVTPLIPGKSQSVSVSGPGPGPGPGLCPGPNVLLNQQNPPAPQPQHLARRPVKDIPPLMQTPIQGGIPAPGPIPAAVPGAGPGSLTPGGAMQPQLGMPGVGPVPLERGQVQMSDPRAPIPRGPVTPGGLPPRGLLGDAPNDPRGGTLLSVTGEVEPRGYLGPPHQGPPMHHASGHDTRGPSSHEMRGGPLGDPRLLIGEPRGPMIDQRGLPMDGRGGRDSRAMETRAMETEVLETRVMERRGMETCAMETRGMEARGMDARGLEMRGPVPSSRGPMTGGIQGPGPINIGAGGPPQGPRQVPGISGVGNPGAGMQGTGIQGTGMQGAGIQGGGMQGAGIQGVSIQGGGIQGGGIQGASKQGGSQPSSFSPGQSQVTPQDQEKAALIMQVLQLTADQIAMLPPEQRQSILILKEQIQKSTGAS
# Procedure, shortened: as §1
# [3] = target: T3, DNTTIP1 (UniProt Q9H147)
# T3 sequence (whole entry): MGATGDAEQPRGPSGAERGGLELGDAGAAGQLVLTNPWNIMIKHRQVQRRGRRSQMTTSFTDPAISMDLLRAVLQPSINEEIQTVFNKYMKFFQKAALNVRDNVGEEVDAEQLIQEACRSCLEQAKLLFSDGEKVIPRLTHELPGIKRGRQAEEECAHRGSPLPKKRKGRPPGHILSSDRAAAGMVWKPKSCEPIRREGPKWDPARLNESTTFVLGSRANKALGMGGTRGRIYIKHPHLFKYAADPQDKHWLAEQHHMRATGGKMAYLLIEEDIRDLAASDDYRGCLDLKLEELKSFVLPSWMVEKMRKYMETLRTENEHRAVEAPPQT
# Procedure, shortened: as §1
# [4] = target: T4, PLEKHF2 (UniProt Q9H8W4)
# T4 sequence (whole entry): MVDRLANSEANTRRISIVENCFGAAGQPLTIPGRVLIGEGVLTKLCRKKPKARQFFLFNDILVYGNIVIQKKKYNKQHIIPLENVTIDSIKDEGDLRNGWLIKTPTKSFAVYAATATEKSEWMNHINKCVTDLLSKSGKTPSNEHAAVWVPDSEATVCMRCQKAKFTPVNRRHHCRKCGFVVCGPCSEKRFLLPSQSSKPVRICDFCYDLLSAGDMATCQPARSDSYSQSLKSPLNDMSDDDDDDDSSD
# Procedure, shortened: as §1
# [5] = target: T5, PREB (UniProt Q9HCU5)
# T5 sequence (whole entry): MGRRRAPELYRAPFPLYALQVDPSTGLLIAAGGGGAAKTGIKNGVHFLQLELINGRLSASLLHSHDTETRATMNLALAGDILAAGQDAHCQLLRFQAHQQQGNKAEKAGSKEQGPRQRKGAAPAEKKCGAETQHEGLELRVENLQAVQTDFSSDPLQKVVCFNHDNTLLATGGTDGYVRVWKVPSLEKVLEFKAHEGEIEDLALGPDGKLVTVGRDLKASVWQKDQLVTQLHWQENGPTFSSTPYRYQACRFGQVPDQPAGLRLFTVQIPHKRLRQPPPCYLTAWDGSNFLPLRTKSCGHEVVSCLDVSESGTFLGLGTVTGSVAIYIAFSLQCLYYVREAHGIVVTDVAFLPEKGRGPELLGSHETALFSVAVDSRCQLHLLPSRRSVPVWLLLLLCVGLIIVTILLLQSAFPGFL
# Procedure, shortened: as §1
smiles,measurement,setting,value
Nc1ncnc2c1ncn2[C@@H]1O[C@H](COP(=O)(O)OP(=O)(O)OP(=O)(O)O)[C@@H](O)[C@H]1O [adenosine triphosphate],NP40-soluble protein abundance,[1]; concentration: 1mM,1.01 ± 0.078
same,NP40-soluble protein abundance,[1]; concentration: 2mM,0.988 ± 0.053
same,NP40-soluble protein abundance,[1]; concentration: 4mM,0.969 ± 0.031
same,NP40-soluble protein abundance,[1]; concentration: 6mM,0.95 ± 0.081
same,NP40-soluble protein abundance,[1]; concentration: 8mM,0.987 ± 0.026
same,NP40-soluble protein abundance,[1]; concentration: 10mM,0.968 ± 0.044
same,NP40-soluble protein abundance,[2]; concentration: 1mM,1.02 ± 0.06
same,NP40-soluble protein abundance,[2]; concentration: 2mM,1.02 ± 0.053
same,NP40-soluble protein abundance,[2]; concentration: 4mM,1.03 ± 0.024
same,NP40-soluble protein abundance,[2]; concentration: 6mM,1.09 ± 0.025
same,NP40-soluble protein abundance,[2]; concentration: 8mM,1.05 ± 0.014
same,NP40-soluble protein abundance,[2]; concentration: 10mM,1.06 ± 0.017
same,NP40-soluble protein abundance,[3]; concentration: 1mM,1.08 ± 0.024
same,NP40-soluble protein abundance,[3]; concentration: 2mM,1.05 ± 0.028
same,NP40-soluble protein abundance,[3]; concentration: 4mM,1.06 ± 0.015
same,NP40-soluble protein abundance,[3]; concentration: 6mM,1.05 ± 0.029
same,NP40-soluble protein abundance,[3]; concentration: 8mM,1.06 ± 0.051
same,NP40-soluble protein abundance,[3]; concentration: 10mM,1.07 ± 0.018
same,NP40-soluble protein abundance,[4]; concentration: 1mM,0.94 ± 0.031
same,NP40-soluble protein abundance,[4]; concentration: 2mM,0.958 ± 0.027
same,NP40-soluble protein abundance,[4]; concentration: 4mM,0.9318 ± 0.0048
same,NP40-soluble protein abundance,[4]; concentration: 6mM,0.941 ± 0.024
same,NP40-soluble protein abundance,[4]; concentration: 8mM,0.909 ± 0.023
same,NP40-soluble protein abundance,[4]; concentration: 10mM,0.9057 ± 0.0078
same,NP40-soluble protein abundance,[5]; concentration: 1mM,1.03 ± 0.053
same,NP40-soluble protein abundance,[5]; concentration: 2mM,1.02 ± 0.042
same,NP40-soluble protein abundance,[5]; concentration: 4mM,1.02 ± 0.062

# 2 consecutive records out of the list so far, quoted:
smiles,measurement,setting,value
Nc1ncnc2c1ncn2[C@@H]1O[C@H](COP(=O)(O)OP(=O)(O)OP(=O)(O)O)[C@@H](O)[C@H]1O [adenosine triphosphate],NP40-soluble protein abundance,[5]; concentration: 1mM,1.03 ± 0.053
same,NP40-soluble protein abundance,[5]; concentration: 2mM,1.02 ± 0.042
